Results on one compound are retold here after the NIST ThermoML archive (doi:10.1021/je400683g).

Numbers after ± are expanded uncertainties.

The conditions of the data set: 298.15 K; 101.33 kPa; Liquid; Vibrating tube method.

On to `CCO` [ethanol], for which the mass density is on record as 785.06 ± 0.12 kg/m3.

What is called mass density is mass per unit of volume.
